# The other results are listed elsewhere or left out. The main result of the screen is listed elsewhere. These columns were measured beside it and carry no call. Compounds called inactive in the main read-out are mostly missing here. Potencies come from curve fits of mixed quality, noted in brackets.
# Assay: qHTS Assay to Find Inhibitors of Chronic Active B-Cell Receptor Signaling
# Details: ABC-DLBCL IkBa-CBG/CBR reporter, luminescence ratio (green luciferase fused to IkBa over red control in TMD8 lymphoma cells), 4 h
# In short: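 TMD8 human ABC-DLBCL cells with doxycycline-inducible IκBα–green luciferase fusion and unfused red luciferase, in 0.5% FBS medium; compounds up to 46 uM, 4 h at 37C. Green/red luminescence ratio, filter-overlap corrected, fitted to concentration-response curves.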
# [1] = measured here: CBR red luminescence, cell number
SMILES,AC50 [1],AC50 (measured here: IkBa-CBG green luminescence)
COc1ccc(C)cc1NC(=O)C(Sc1ccccc1)c1ccccc1 (stereo not drawn),"3.26 µM [falling, single point]",–
Cc1cc(C)n(Cc2ccc(C(=O)O)o2)n1,"1.26 µM [rising, full curve, poor fit]",–
Cc1ccc2nc(SCc3cccc([N+](=O)[O-])c3)nc(C)c2c1,"5.62 µM [rising, single point]",–
CC(=O)Nc1cccc(NC(=O)Nc2ccc(F)cc2F)c1,"1.78 µM [falling, full curve]",–
Cn1c(-c2ccc(F)cc2)cnc1NCc1ccccc1F,"20 µM [falling, single point]",–
CCCC[C@@H](CNC)NC[C@H](NCCCCC1CCCCC1)C(C)C,"10 µM [falling, partial curve, poor fit]",–
C=CCn1c(=NC(=O)C2COc3ccccc3O2)sc2cc(S(N)(=O)=O)ccc21 (stereo not drawn),"3.66 µM [rising, full curve, poor fit]",–
Cc1c(CC(=O)NCCC(=O)O)c(=O)oc2cc3oc4c(c3cc12)CCCC4,"22.4 µM [falling, single point]",–
CCOC(=O)CNC(=O)c1sc(NC(=O)c2ccccc2)nc1C,"13 µM [falling, partial curve]",–
COc1ccc(-n2c(COc3ccccc3)nnc2SCc2ccc(C#N)cc2)cc1,"9.2 µM [falling, partial curve]",–
O=C(O)c1ccc2c(c1)C(=O)N(c1ccc([N+](=O)[O-])cn1)C2=O,"20 µM [falling, single point]",–
COc1ccccc1OCCCN1C(=O)C(=O)c2cccc(C)c21,–,"17.8 µM [falling, partial curve]"
CSc1cccc(NC(=O)C2CCN(S(=O)(=O)c3ccc4c(c3)NC(=O)CO4)CC2)c1,"35.5 µM [falling, single point]",–
O=C(O)C1C2CCC(C2)C1C(=O)NCc1ccccn1 (stereo not drawn),"3.55 µM [rising, partial curve, poor fit]",–
Cc1ccccc1CSc1nnc2[nH]c(=O)cc(C)n12,"17.8 µM [rising, partial curve, poor fit]",–
O=S(=O)(NCc1cn2ccccc2n1)c1ccccc1F,"35.5 µM [rising, single point]",–
Cc1cc(C(=O)Nc2nc3ccc(S(C)(=O)=O)cc3s2)c(C)o1,"0.13 µM [falling, full curve, poor fit]",–
COc1cc(Cl)c(C)cc1NC(=O)CSc1nnc(-c2cccnc2)n1Cc1ccco1,"35.5 µM [falling, single point]",–
O=C(OCCc1cc2ccccc2c(=O)o1)c1ccco1,"9.2 µM [rising, partial curve]",–
CCC(c1nnnn1Cc1ccco1)N(CCc1ccccc1)Cc1cc2ccc(OC)cc2[nH]c1=O (stereo not drawn),"35.5 µM [falling, partial curve, poor fit]",–
c1ccc(-n2ncc3c(NC4CCCCCC4)ncnc32)cc1,"7.08 µM [falling, partial curve, poor fit]",–
CCN(CC)C(=O)c1cc(Cl)ccn1,"11.2 µM [rising, single point]",–

SMILES,AC50 [1],AC50 (measured here: IkBa-CBG green luminescence)
O=C(N/N=C/c1cccnc1)c1cc(-c2ccc(Br)cc2)nc2ccccc12,"17.8 µM [rising, single point]",–
O=C(NC(Cc1ccccc1)C(=O)O)c1ccccc1 (stereo not drawn),"35.5 µM [falling, partial curve, poor fit]",–
COc1ccc(C(=O)CCN2CCc3cc(OC)c(OC)cc3C2)cc1,"14.1 µM [falling, partial curve]",–
O=C(Nc1cccc2cccnc12)c1ccc(Cl)cc1,"22.4 µM [falling, partial curve]",–
Cc1ccc(C)c(CN2CCNC2=O)c1,"0.0891 µM [rising, full curve, poor fit]",–
O=c1c2ccccc2nc(-c2cccc(Cl)c2)n1O,"16.4 µM [falling, partial curve]",–
CC1C(=O)N2CCCc3cc(S(=O)(=O)Nc4ccccc4F)cc1c32 (stereo not drawn),"2.06 µM [rising, partial curve]",–
CCN(CC)C(=O)c1cc2c(=O)oc3ccccc3c2s1,"29.1 µM [falling, single point]",–
O=C(NCCCCO)C(F)(F)C(F)(F)C(F)(F)C(=O)NCCCCO,"35.5 µM [falling, single point]",–
O=C(Nc1ccccc1C(=O)N1CCOCC1)c1cc2ccccc2o1,"7.08 µM [falling, partial curve, poor fit]",–
CC(C)n1c(=S)[nH]c2ccccc21,"16.4 µM [rising, single point]",–
O=C(Nc1nc2ccccc2[nH]1)c1cc2ccccc2o1,"0.501 µM [falling, full curve]",–
Cc1ccc(CONC(=O)c2ccc(Cl)cc2)cc1,"5.8 µM [falling, full curve]",–
COC(=O)c1ccc(N=Cc2c(-c3ccccc3)[nH][nH]c2=O)cc1,"11.2 µM [falling, partial curve, poor fit]",–
CC(C)Cn1c(CCC(=O)O)ccc1-c1cccs1,"4.61 µM [rising, single point]",–
Cc1ccc(/C=C2/SC(=S)N(c3ccc(S(=O)(=O)Nc4nccs4)cc3)C2=O)cc1,"12.6 µM [falling, partial curve]",–
O=C(/C=C/c1ccccc1)c1ccc2c3c(cccc13)CC2,"0.231 µM [rising, partial curve]",–
O=C(CCC(=O)Nc1ccccc1)NNS(=O)(=O)c1ccc(Cl)cc1,"0.891 µM [falling, full curve]",–
C/C(=N\NC(=O)c1ccc(Cn2cc(Br)cn2)o1)c1cccc(NC(=O)C(C)C)c1,"11.6 µM [falling, single point]",–
CCCc1ccc(-c2cc(C(=O)NN3CCOCC3)c3ccccc3n2)cc1,"1.26 µM [falling, full curve, poor fit]",–
O=C(Cn1ncc2c3ccccc3n(Cc3ccccc3)c2c1=O)NCCCN1CCCC1=O,"14.1 µM [falling, single point]",–

# Looked up above:
# Value of `O=C(Nc1ccccc1C(=O)N1CCOCC1)c1cc2ccccc2o1` under AC50 [1]: 7.08 µM [falling, partial curve, poor fit]
# Value of `CC(C)n1c(=S)[nH]c2ccccc21` under AC50 [1]: 16.4 µM [rising, single point]

# Source: PubChem BioAssay AID493014 (National Center for Advancing Translational Sciences (NCATS), 2011)
